Assay results: paper PMC12663271
No constants are given. Whether binding was seen depends on the method and setting. Binding can be weak; no strength is given. Tags and fused reporters may be left off the sequences shown. For part of these data: Binding seen in cells or lysates may run through a third protein.

Columns and labels:
[1] = target: Flag-tagged AMPKα2 (human); experiment: co-IP; 293T cells co-transfected with Flag- and HA-tagged constructs; lysis in BC300 (300 mM KCl, 0.1% NP40), diluted with an equal volume of BC0; anti-Flag M2 magnetic beads; washes with BC150; western blot; glucose said to have a limited effect on the interaction (Fig. S3A)
GST-AMPKα2 (human) = experiment: pull-down; GST-AMPKα2 held on anti-GST magnetic beads, 500 ng purified His-WIP1 added, 4 °C overnight; binding buffer 50 mM Tris pH 7.4, 300 mM NaCl, 10% glycerol, 0.1% NP40; eluted with glutathione; western blot; both purified

B1: HA-tagged WIP1 (enzyme, UniProt O15297 1-605)
chain: MAGLYSLGVSVFSDQGGRKYMEDVTQIVVEPEPTAEEKPSPRRSLSQPLPPRPSPAALPGGEVSGKGPAVAAREARDPLPDAGASPAPSRCCRRRSSVAFFAVCDGHGGREAAQFAREHLWGFIKKQKGFTSSEPAKVCAAIRKGFLACHLAMWKKLAEWPKTMTGLPSTSGTTASVVIIRGMKMYVAHVGDSGVVLGIQDDPKDDFVRAVEVTQDHKPELPKERERIEGLGGSVMNKSGVNRVVWKRPRLTHNGPVRRSTVIDQIPFLAVARALGDLWSYDFFSGEFVVSPEPDTSVHTLDPQKHKYIILGSDGLWNMIPPQDAISMCQDQEEKKYLMGEHGQSCAKMLVNRALGRWRQRMLRADNTSAIVICISPEVDNQGNFTNEDELYLNLTDSPSYNSQETCVMTPSPCSTPPVKSLEEDPWPRVNSKDHIPALVRSNAFSENFLEVSAEIARENVQGVVIPSKDPEPLEENCAKALTLRIHDSLNNSLPIGLVPTNSTNTVMDQKNLKMSTPGQMKAQEIERTPPTNFKRTLEESNSGPLMKKHRRNGLSRSSGAQPASLPTTSQRKNSVKLTMRRRLRGQKKIGNPLLHQHRKTVCVC
Q: With B1 as the binder, how does the binding [1] read?
A: binds

B2: His-WIP1 (enzyme, UniProt O15297 1-605)
chain: MAGLYSLGVSVFSDQGGRKYMEDVTQIVVEPEPTAEEKPSPRRSLSQPLPPRPSPAALPGGEVSGKGPAVAAREARDPLPDAGASPAPSRCCRRRSSVAFFAVCDGHGGREAAQFAREHLWGFIKKQKGFTSSEPAKVCAAIRKGFLACHLAMWKKLAEWPKTMTGLPSTSGTTASVVIIRGMKMYVAHVGDSGVVLGIQDDPKDDFVRAVEVTQDHKPELPKERERIEGLGGSVMNKSGVNRVVWKRPRLTHNGPVRRSTVIDQIPFLAVARALGDLWSYDFFSGEFVVSPEPDTSVHTLDPQKHKYIILGSDGLWNMIPPQDAISMCQDQEEKKYLMGEHGQSCAKMLVNRALGRWRQRMLRADNTSAIVICISPEVDNQGNFTNEDELYLNLTDSPSYNSQETCVMTPSPCSTPPVKSLEEDPWPRVNSKDHIPALVRSNAFSENFLEVSAEIARENVQGVVIPSKDPEPLEENCAKALTLRIHDSLNNSLPIGLVPTNSTNTVMDQKNLKMSTPGQMKAQEIERTPPTNFKRTLEESNSGPLMKKHRRNGLSRSSGAQPASLPTTSQRKNSVKLTMRRRLRGQKKIGNPLLHQHRKTVCVC
Q: For B2, which binding (GST-AMPKα2 (human)) is on record?
A: binds

B3: HA-tagged WIP1 1–372 aa (domain or fragment, UniProt O15297 1-372)
chain: MAGLYSLGVSVFSDQGGRKYMEDVTQIVVEPEPTAEEKPSPRRSLSQPLPPRPSPAALPGGEVSGKGPAVAAREARDPLPDAGASPAPSRCCRRRSSVAFFAVCDGHGGREAAQFAREHLWGFIKKQKGFTSSEPAKVCAAIRKGFLACHLAMWKKLAEWPKTMTGLPSTSGTTASVVIIRGMKMYVAHVGDSGVVLGIQDDPKDDFVRAVEVTQDHKPELPKERERIEGLGGSVMNKSGVNRVVWKRPRLTHNGPVRRSTVIDQIPFLAVARALGDLWSYDFFSGEFVVSPEPDTSVHTLDPQKHKYIILGSDGLWNMIPPQDAISMCQDQEEKKYLMGEHGQSCAKMLVNRALGRWRQRMLRADNTSAIV
Q: For B3, which binding [1] is on record?
A: binds

B4: HA-tagged WIP1 101–605 aa (domain or fragment, UniProt O15297 101-605)
chain: FAVCDGHGGREAAQFAREHLWGFIKKQKGFTSSEPAKVCAAIRKGFLACHLAMWKKLAEWPKTMTGLPSTSGTTASVVIIRGMKMYVAHVGDSGVVLGIQDDPKDDFVRAVEVTQDHKPELPKERERIEGLGGSVMNKSGVNRVVWKRPRLTHNGPVRRSTVIDQIPFLAVARALGDLWSYDFFSGEFVVSPEPDTSVHTLDPQKHKYIILGSDGLWNMIPPQDAISMCQDQEEKKYLMGEHGQSCAKMLVNRALGRWRQRMLRADNTSAIVICISPEVDNQGNFTNEDELYLNLTDSPSYNSQETCVMTPSPCSTPPVKSLEEDPWPRVNSKDHIPALVRSNAFSENFLEVSAEIARENVQGVVIPSKDPEPLEENCAKALTLRIHDSLNNSLPIGLVPTNSTNTVMDQKNLKMSTPGQMKAQEIERTPPTNFKRTLEESNSGPLMKKHRRNGLSRSSGAQPASLPTTSQRKNSVKLTMRRRLRGQKKIGNPLLHQHRKTVCVC
Q: How did the binding [1] turn out when B4 was run?
A: binds

B5: HA-tagged WIP1 1–100 aa (domain or fragment, UniProt O15297 1-100)
chain: MAGLYSLGVSVFSDQGGRKYMEDVTQIVVEPEPTAEEKPSPRRSLSQPLPPRPSPAALPGGEVSGKGPAVAAREARDPLPDAGASPAPSRCCRRRSSVAF
Q: How did the binding [1] turn out when B5 was run?
A: no binding

B6: HA-tagged WIP1 373–605 aa (domain or fragment, UniProt O15297 373-605)
chain: ICISPEVDNQGNFTNEDELYLNLTDSPSYNSQETCVMTPSPCSTPPVKSLEEDPWPRVNSKDHIPALVRSNAFSENFLEVSAEIARENVQGVVIPSKDPEPLEENCAKALTLRIHDSLNNSLPIGLVPTNSTNTVMDQKNLKMSTPGQMKAQEIERTPPTNFKRTLEESNSGPLMKKHRRNGLSRSSGAQPASLPTTSQRKNSVKLTMRRRLRGQKKIGNPLLHQHRKTVCVC
Q: How did the binding [1] turn out when B6 was run?
A: no binding
